This assay concerns the target C1_01140Cp-GFPy (Candida albicans SC5314). Description: co-IP; Dual-tagged C. albicans strains grown 14 h in YPD; cells cross-linked with 1 mM dithiobis(succinimidyl propionate) in PBS for 30 min before lysis; 2 mg lysate protein incubated with anti-GFP (TrueMAB tGFP) monoclonal antibody magnetic beads for 2 h at 4°C; washed in 20 mM Tris-HCl, 150 mM NaCl, 0.5 mM EDTA, 10 mM MgCl2; prey detected by anti-tdTomato western blot; untagged SC5314 as negative control. On the technique in general: A western blot detects proteins with antibodies after separation by electrophoresis.

No constants are given. Whether binding was seen depends on the method and setting. Binding seen in cells or lysates may run through a third protein. Binding can be weak; no strength is given.

B1: CaGsy1p-tdTomato (enzyme, UniProt Q5A850 1-661)
chain: MARDIDNHLLFEVATEVAHKVGGIYSVLKSKAPVTVAEYRERYTLLGPLHYDSAQIEVEELPVTDPHIKQTLDSMSSKGIRWLYGRWLIEGAPRVLLFDIWSAGHYLNEWKADLWNVAGIPTPDHDSETNDAILLGYLVAWFLGELVYNDRDRAVICQCHEWLAGIALPLCRKRRIDVTTIFTTHATLLGRYLCAGSTDFYNNLDKFDVDAEAGKRGIYHRYCIERSATHSADVFTTVSDITAYEAEHLLKRKPDGVLPNGLNVVKFQAVHEFQNLHAIKKAKINEFVKGHFYGNYDFDLDNTLYFFIAGRYEFRNKGCDFFIESLARLNHKLKEAGSKTTVVAFIIMPGKTQSYTVETLKGQAVVKQLESTIGEVQKKVGERLFEYCARYPNTDHHGNDEVPTIDELIKPADRVLLKRRIFALKRDGLPPIVTHNMVDDSTDPVLNHIRRVQLFNKPEDRVKIIFHPEFLNANNPILSLDYDEFVRGCHLGVFPSYYEPWGYTPAECTVMGIPSITTNLSGFGCYMNDLVENPTDYGIYIVDRRMKSVDESINQLTDYMFDFCAKSRRQRINQRNRTERLSVLLDWRSVHSEYSKARLLALKRAYPDYVGEKVVESKMKITRPMSVPGSPRSLLLTPGDLGSLQDANQDISYFELGEEET
As to B1, the binding entry was “binds”.

The record behind these values is paper PMC11520303.
